The results in this text go back to article doi:10.1101/2020.10.02.323576.

This assay addresses RFP-RNF26 ΔRING. Briefly: co-IP.

Results are given in words; binding and its absence hold for the method and conditions named. In cells and extracts the contact can be indirect. A result given as binding can be weak or reduced; the word gives no strength.

B1: endogenous UBE2J1 (enzyme, UniProt Q9Y385 1-318)
chain: METRYNLKSPAVKRLMKEAAELKDPTDHYHAQPLEDNLFEWHFTVRGPPDSDFDGGVYHGRIVLPPEYPMKPPSIILLTANGRFEVGKKICLSISGHHPETWQPSWSIRTALLAIIGFMPTKGEGAIGSLDYTPEERRALAKKSQDFCCEGCGSAMKDVLLPLKSGSDSSQADQEAKELARQISFKAEVNSSGKTISESDLNHSFSLTDLQDDIPTTFQGATASTSYGLQNSSAASFHQPTQPVAKNTSMSPRQRRAQQQSQRRLSTSPDVIQGHQPRDNHTDHGGSAVLIVILTLALAALIFRRIYLANEYIFDFEL
Turning to B1, the binding entry is “binds”.
